# Assay results taken from patent US20200308220A1 (priority 2015, published 2020).
# For part of these data: Strings that start with PEPTIDE1 are HELM notation: dots part the residues, brackets hold end groups and non-standard residues. [ ]: non-standard residue; d: D form. The star is where a group is joined. Pmc = Cc1c(C)c(S(=O)(=O)*)c(C)c2c1OC(C)(C)CC2; Dmt = Cc1cc(O)cc(C)c1C[C@H](N)C(=O)O; Fmoc = O=C(OCC1c2ccccc2-c2ccccc21)*; Boc = CC(C)(C)OC(=O)*; βAla = NCCC(=O)O
# What was measured:
# [1] = general procedure: peptide synthesis; chlorotrityl chloride resin; HBTU/Cl-HOBt/DIPEA (1:1:2); DIC/Cl-HOBt; HBTU/DIPEA in solution; details: whole synthesis
# [2] = general procedure: peptide synthesis; H-β-Ala-2-chlorotrityl resin; HBTU/Cl-HOBt/DIPEA (1:1:2); DIC/Cl-HOBt; HBTU/DIPEA in solution; details: whole synthesis
# [3] = general procedure: peptide synthesis; p-methylbenzhydrylamine resin; HBTU/Cl-HOBt/DIPEA (1:1:2); DIC/Cl-HOBt; HBTU/DIPEA in solution; details: whole synthesis
# [4] = general procedure: peptide synthesis; chlorotrityl chloride resin; H-β-Ala-2-chlorotrityl resin; p-methylbenzhydrylamine resin; HBTU/Cl-HOBt/DIPEA (1:1:2); DIC/Cl-HOBt; HBTU/DIPEA in solution; details: for conjugation yield: conjugation step
substance,measurement,setting,value
Fmoc-Dmt-D-Arg(Pbf)-Phe-Lys(Boc)-OH,crude yield,[1],yield 85%
Fmoc-[dR](Pmc)[Dmt]K(Boc)F[βAla]-OH,crude purity (method not given),[2],>95%
H-D-Arg-Dmt-Lys(TEMPO)-Phe-NH2,crude yield,[3],yield of 80%
H-D-Arg-Dmt-Lys-Phe-NH—(CH2)2—CO—NH-TEMPO,conjugation yield,[4],81.5% yield
PEPTIDE1{[Dmt].[dR].F.K.[bAla].[NH-TEMPO]}$$$$V2.0,conjugation yield,[4],63% yield
PEPTIDE1{[Dmt].[dR].F.[Lys(NH-TEMPO)].[am]}$$$$V2.0,step yield,[4]; coupling step,yield 100%
